Reference: PubChem BioAssay AID686943 (Drosophila RNAi Screening Center, 2013)
The deposit covers about 23,000 reagents; shown is an unselected part of those that have a named target and a result. 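Extra replicates exist only for a retested subset of genes; insulin dose and duration not given; both raised and lowered dpERK matter.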 A plus sign joins genes that one reagent is predicted to hit. Not given: the amount of reagent, the time to read-out.

- Test: 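Knockdowns that increase or decrease active ERK after insulin receptor stimulation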 (primary screen)
- Cells: Drosophila S2R+ haemocyte-like cells expressing YFP-tagged ERK (Rolled)
- Reagent: long dsRNA against Drosophila genes
- Challenge: insulin stimulation versus unstimulated cells; dose and duration not given
- Measured: 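Antibody staining for doubly phosphorylated ERK divided by ERK-YFP signal, as plate z-scores, in insulin-treated and untreated cells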
- Direction: replicate 1, z-score of dpERK with insulin and replicate 2, z-score of dpERK with insulin: higher = more active ERK per ERK-YFP after insulin; replicate 1, z-score of dpERK under basal conditions: higher = more basal active ERK per ERK-YFP; replicate 1, z-score of ERK-YFP with insulin: higher = more YFP-tagged ERK signal

The first 2 entries as a preview:
| gene | DRSC id | replicate 1, z-score of dpERK with insulin | replicate 2, z-score of dpERK with insulin | replicate 1, z-score of dpERK under basal conditions | replicate 1, z-score of ERK-YFP with insulin |
| --- | --- | --- | --- | --- | --- |
| Pcl (Polycomblike) | DRSC07503 | 0.04 | 0.18 | 0.37 | 1.16 |
| AP-2mu (Adaptor Protein complex 2, mu subunit) | DRSC14090 | 0.91 | 2.12 | -0.44 | 0.34 |

The listing, repeating the preview:
| gene | DRSC id | replicate 1, z-score of dpERK with insulin | replicate 2, z-score of dpERK with insulin | replicate 1, z-score of dpERK under basal conditions | replicate 1, z-score of ERK-YFP with insulin |
| --- | --- | --- | --- | --- | --- |
| Pcl (Polycomblike) | DRSC07503 | 0.04 | 0.18 | 0.37 | 1.16 |
| AP-2mu (Adaptor Protein complex 2, mu subunit) | DRSC14090 | 0.91 | 2.12 | -0.44 | 0.34 |
| CG13082 | DRSC02186 | 1.09 | 1.14 | -0.04 | -0.57 |
| Sesn (Sestrin) | DRSC04101 | 0.66 | -0.2 | -3.15 | -1.59 |
| Sesn (Sestrin) | DRSC04102 | 0.83 | -0.58 | 0.19 | -0.68 |
| Sesn (Sestrin) | DRSC04103 | -0.05 | -1.08 | -0.24 | -0.66 |
| lncRNA:CR43632 (long non-coding RNA:CR43632) | DRSC13730 | -0.89 | -1 | 0.11 | 0.5 |
| crq (croquemort) | DRSC00810 | 0.28 | 0.05 | 1.45 | 1.16 |
| CG17600 | DRSC20638 | 1.03 | -0.15 | 0.08 | 0.19 |
| CG17600 | DRSC20640 | -0.09 | 0.01 | -0.15 | -0.57 |
| CG17600 | DRSC22753 | -0.38 | 0.23 | 0.76 | -0.26 |
| mtsh (mitoshell) | DRSC03070 | 1.06 | 0.22 | -0.96 | -0.09 |
| Pef (Peflin) | DRSC06695 | -0.02 | -0.03 | 0.6 | -0.42 |
| Dhrs4 (Dehydrogenase/reductase 4) | DRSC09773 | 0.41 | 0.75 | 0.6 | 0.2 |
| inaE (inactivation no afterpotential E) | DRSC19376 | 0.42 | 1.25 | 0.14 | 0.5 |
| inaE (inactivation no afterpotential E) | DRSC19377 | -0.99 | 0.31 | -0.19 | 0.8 |
| inaE (inactivation no afterpotential E) | DRSC19379 | 1.02 | 0.98 | -0.93 | -0.44 |
| inaE (inactivation no afterpotential E) | DRSC19726 | 0.9 | 1.84 | 0.49 | -0.81 |
| CG9951 | DRSC11105 | 0.42 | 0.52 | 0.36 | 0.66 |
| CG14518 | DRSC14870 | -0.66 | 0 | 0.69 | 0.54 |
| CanB (Calcineurin B) | DRSC18449 | -0.03 | -0.15 | -0.43 | 0.08 |
| comt (comatose) | DRSC20319 | 0.28 | 0.05 | -1.1 | -0.24 |
| CG7912 | DRSC16343 | 7.13 | 0.84 | -0.41 | -0.94 |
| CG33309 | DRSC01421 | -0.84 | -0.01 | -0.6 | 1.07 |
| Rab14 | DRSC03403 | -0.66 | -0.09 | -0.53 | 1.51 |
| lncRNA:CR43498 (long non-coding RNA:CR43498) | DRSC17621 | 0.43 | -0.03 | 0.74 | 0.13 |
| PKD (Protein Kinase D) | DRSC16200 | 0.04 | 0.15 | -0.36 | -0.17 |
| noc (no ocelli) | DRSC03580 | 0.13 | -1.11 | -0.41 | 0.33 |
| PolD1 (DNA polymerase delta subunit 1) | DRSC11138 | 0.25 | 0.72 | 1.03 | 0.17 |
| CG9106 | DRSC20154 | 0.1 | 0.57 | -0.55 | 0.49 |
| Gba1a (Glucocerebrosidase 1a) | DRSC21494 | 0.67 | 0.09 | 0.25 | 0.56 |
| CG4896 | DRSC00671 | -0.29 | -1.33 | -0.82 | -0.69 |
| Nos (Nitric oxide synthase) | DRSC03381 | 0.52 | 0.24 | -0.38 | -0.2 |
| naz (nazgul) | DRSC14790 | 0.83 | -0.39 | -0.1 | 0.36 |
| naz (nazgul) | DRSC16199 | 0.19 | 0.22 | 0.23 | -0.4 |
| CG34176 | DRSC00435 | 0.9 | 0.6 | 0.52 | 0.5 |
| CG32333 | DRSC08627 | 0.14 | -0.37 | -0.11 | 1.18 |
| CG32333 | DRSC08629 | -1.22 | -0.89 | -0.14 | -0.39 |
| Sse (Separase) | DRSC09746 | 0.1 | 0.85 | -1.57 | -2.27 |
| CG7448 (retired record) | DRSC11828 | -0.49 | -0.2 | -0.6 | -0.06 |
| CG7448 (retired record) | DRSC22485 | -3.26 | 0.1 | 0.2 | 1.59 |
| CG9444 | DRSC16493 | 0.13 | 0.19 | 0.06 | 0.41 |
| nrv2 (nervana 2) | DRSC00948 | -1.08 | 0.16 | -0.42 | -0.15 |
| nrv2 (nervana 2) | DRSC03383 | 0.93 | 0.19 | 0.43 | 0.86 |
| OS9 + Hf | DRSC03392 | 0.96 | -0.36 | 1.19 | 0.03 |
| Opbp (Optix-binding protein) | DRSC04966 | 0.05 | -0.3 | 0.72 | -0.18 |
| ppk12 (pickpocket 12) | DRSC04086 | -1.9 | -1.69 | -0.42 | -0.39 |
| MYPT-75D (Myosin phosphatase targeting subunit 75D) | DRSC10743 | 0.44 | 0.11 | -0.29 | 0.3 |
| CG31126 | DRSC14623 | 0.33 | -0.22 | 0.92 | 0.5 |
| CG43386 | DRSC17980 | -0.38 | -0.03 | -0.35 | 0.21 |
| kri (krishah) | DRSC10515 | 0.19 | -0.33 | 1.27 | -0.3 |
| Flacc (Fl(2)d-associated complex component) | DRSC20040 | -0.05 | 0.6 | -0.24 | 0.91 |
| hig (hikaru genki) | DRSC07628 | 0.22 | -0.19 | -0.5 | 0.58 |
| hig (hikaru genki) | DRSC22827 | 0.56 | 0.25 | 1.05 | -1.4 |
| hig (hikaru genki) | DRSC22899 | 0.99 | 0.57 | -0.13 | -1.95 |
| CG30197 | DRSC22394 | -1.08 | -1.27 | -0.9 | 1.69 |
| CG32189 | DRSC09511 | -0.24 | 0.94 | 0.06 | 2.55 |
